The shares of active, inactive and inconclusive entries below differ from those in the screen. Potencies of inconclusive entries are doubtful fits and often do not repeat. Active and inactive are the calls of the source. Calls follow the shape of the full dose curve.
molecular target: Atrial natriuretic peptide receptor 2 (Homo sapiens) (UniProt P20594); experiment: Natriuretic polypeptide receptor (hNpr2) antagonism - Pilot subtype selectivity assay (AID 1347050); settings: NPR2-expressing cells, cGMP antagonist-mode read-out; series mostly up to 38.3 µM
Experimental: F. Fan, B. F. Binkowski, B. L. Butler, P. F. Stecha, M. K. Lewis, K. V. Wood, Novel genetically encoded biosensors using firefly luciferase. ACS Chem Biol 3, 346-351 (2008).
PROTOCOL TABLE (as described by Inglese J, Shamu CE and Guy RK. 2007)
SEQUENCE No. (e.g., 1, 2, 3, etc.); […] (e.g., Cells, Incubation, Reagent, etc.); VALUE and DESCRIPTION.
1. Cells. Seed 1500 HEK293 cGMP-sensor cells expressing hNpr2 per well in 4uL into Greiner 1536-well white/solid bottom high base, TC plates.
2. Incubation. Incubate plated cells at 37C in 5% CO2, 95% RH overnight.
3. Reagent. Add 1uL per well GloSensor reagent from Promega (2% final concentration) or CO2 independent media vehicle control to respective columns of Greiner 1536-well plates.
4. Incubation. Incubate plated cells at ambient temperature for 2 h., protect from light.
5. Compounds. Library compounds and DMSO vehicle control added at 23nL per well, transferred by Pin Tool.
6. Incubation. Incubate plated cells for 30 min. at ambient temperature, protect from light.
7. Detector. GloSensor baseline pre-read luminescence measured using CCD-based camera (Viewlux).
8. Compound. Add 1uL of hNppC peptide to 1 nM final concentration to stimulate hNpr2 or CO2 independent media as vehicle control.
9. Incubation. Incubate treated cells at ambient temperature for 20 min., protect from light.
10. Detector. GloSensor post-hNppC luminescence measured using CCD-based camera (Viewlux).
NOTES (numbers refer to Sequence numbers above)
1. HEK293 cells expressing hNpr2 and GIP/pGS-40F were grown to 85-95% confluence (48-72 h) in T175 culture flasks (CO2 independent media supplemented with 10% FBS, 1% Pen/Strep antibiotics, and 1 ug/mL puromycin). Trypsinize and harvest cells from T175 culture flasks and filter through 40 um cell strainer. Cells counted with Invitrogen Countess (30,000,000 - 50,000,000 cells/flask). Cells diluted to a final concentration of 375 cells/uL in CO2 independent media and a Millipore multidrop used to dispense 1500 cells per well (4uL/well) into 9 x1536-well Greiner White/Solid bottom, high base tissue-culture treated (TC) plates and one Aurora 1536-well Black/Clear bottom, low base, TC plate (for visual inspection of cell health throughout the duration of the assay).
2. Cells incubated for 24 h. at 37C in 95% RH incubator with metal lid having gas-exchange holes.
3. Prepare GloSensor Reagent (Promega): Reconstitute GloSensor luciferase substrate by adding 8.2mL Hepes buffer to 250mg substrate, mix well, protect from light and stored at -80C. Prepare a fresh 12% GloSensor solution in CO2 independent supplemented plating media (see above). Mix well and store at ambient temperature, protected from light. 1uL 12% GloSensor Luciferase Reagent added (2% final concentration) to respective columns of 9 x 1536-well Greiner plate with BioRaptr, 1uL CO2 independent plating media added to respective columns as vehicle control with BioRaptr.
4. Cells incubated for 2 h. at ambient temperature, protected from light with metal lid having gas-exchange holes.
5. 23nL of LOPAC1280 library compounds (7 plates) or DMSO vehicle control transferred to 9 Greiner white/solid bottom high base, TC plates in 7 interplate 1:5 titrations (see Yasgar, A. et al. 2008) with Pintool. Two of the 9 plates are DMSO-only in compound field at beginning and end of compound library-treated plates.
6. Cells incubated for 30-50 min. at ambient temperature protected from light with metal lid having gas-exchange holes.
7. Read cellular baseline GloSensor luminescence in presence of test library compounds on the ViewLux [Exposure = 10 s.; Gain = High; Speed = Slow; and Binning = 2X.]
8. hNppC peptide agonist solution prepared at 1 mM (in H2O) stock concentration. From this a working dilution was prepared at 6 nM in CO2 Independent media. […]
Potency is read from the fitted curve at half-maximal effect.

Protein sequences, listed by entry. Tags and fused reporters are not part of them. Lines headed by an entry give the natural chain unless they say otherwise; changes in a name come on top.
UniProt P20594: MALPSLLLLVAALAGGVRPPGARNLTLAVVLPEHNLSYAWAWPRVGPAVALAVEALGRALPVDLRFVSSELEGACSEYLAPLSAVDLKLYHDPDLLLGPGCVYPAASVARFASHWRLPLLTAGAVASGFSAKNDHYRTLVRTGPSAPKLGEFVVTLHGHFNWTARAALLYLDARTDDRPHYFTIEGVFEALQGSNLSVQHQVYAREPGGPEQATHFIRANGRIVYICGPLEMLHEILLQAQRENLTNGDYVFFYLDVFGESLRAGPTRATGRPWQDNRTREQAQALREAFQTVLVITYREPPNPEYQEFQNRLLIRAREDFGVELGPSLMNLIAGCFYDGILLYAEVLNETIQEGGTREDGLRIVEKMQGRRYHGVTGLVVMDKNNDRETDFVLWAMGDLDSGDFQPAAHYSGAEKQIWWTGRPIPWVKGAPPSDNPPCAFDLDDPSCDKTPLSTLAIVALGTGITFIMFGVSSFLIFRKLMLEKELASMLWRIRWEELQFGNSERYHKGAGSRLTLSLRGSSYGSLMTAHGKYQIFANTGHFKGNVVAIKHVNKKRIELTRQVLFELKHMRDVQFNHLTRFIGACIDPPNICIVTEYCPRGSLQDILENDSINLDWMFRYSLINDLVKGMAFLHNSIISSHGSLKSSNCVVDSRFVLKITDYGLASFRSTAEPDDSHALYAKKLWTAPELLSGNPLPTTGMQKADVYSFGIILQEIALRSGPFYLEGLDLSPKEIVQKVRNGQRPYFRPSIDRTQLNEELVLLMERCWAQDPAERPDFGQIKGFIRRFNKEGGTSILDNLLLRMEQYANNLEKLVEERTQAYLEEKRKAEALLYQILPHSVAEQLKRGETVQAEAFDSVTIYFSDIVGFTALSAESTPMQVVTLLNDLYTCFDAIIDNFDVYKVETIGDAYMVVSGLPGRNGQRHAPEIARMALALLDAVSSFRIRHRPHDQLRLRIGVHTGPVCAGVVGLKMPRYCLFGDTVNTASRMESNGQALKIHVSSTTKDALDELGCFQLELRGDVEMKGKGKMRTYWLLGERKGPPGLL

SMILES	Potency
CN=c1nc(-c2ccccc2)n(-c2ccccc2)s1	inconclusive: 16.5 µM [inhibitor, single point]
O=C(O)/C=C/c1ccc(O)c(O)c1	inactive
COc1cccc(-c2cc(=O)c3ccccc3o2)c1N	inconclusive: 23.3 µM [inhibitor, single point]
O=C1c2ccccc2C(=O)c2c(NCCc3ccc(O)cc3)ccc(NCCc3ccc(O)cc3)c21	active: 13.1 µM
Oc1ccc(/C=C/c2cc(O)cc(O)c2)cc1	inconclusive: 20.7 µM [inhibitor, single point]
O=Nc1ccc2oc(=O)ccc2c1	inconclusive: 13.1 µM [inhibitor, single point]
Nc1nc(Cl)nc2c1ncn2[C@@H]1O[C@H](COP(=O)(O)OP(=O)(O)OP(=O)(O)O)[C@@H](O)[C@H]1O	inactive
NC(=O)c1ccccc1	inactive
COc1cc2c(cc1O)CC[C@@H]1[C@@H]2CC[C@]2(C)[C@@H](O)CC[C@@H]12	inconclusive: 5.85 µM [inhibitor, partial curve]
CCOC(=O)N1CCN(/[N+]([O-])=N/Oc2ccc([N+](=O)[O-])cc2[N+](=O)[O-])CC1	active: 10.4 µM
c1ccc(C(NCCNC(c2ccccc2)c2ccccc2)c2ccccc2)cc1	inconclusive: 26.1 µM [inhibitor, single point]
O=C(/C=C/c1ccc(O)cc1)c1ccc(O)cc1O	inconclusive: 26.1 µM [inhibitor, single point]
CN1CCN(C2Cc3ccccc3Sc3ccc(Cl)cc32)CC1 (stereo not given)	inconclusive: 26.1 µM [inhibitor, single point]
COc1ccc(NC(=O)/C=C/c2ccc(Cl)cc2)cc1	inconclusive: 26.1 µM [inhibitor, single point]
N#C/C(=C\c1ccc(O)c(O)c1)C(=O)Nc1ccccc1	inconclusive: 26.1 µM [inhibitor, single point]
CN1CCN(C2=Nc3cc(Cl)ccc3Nc3ccccc32)CC1	active: 10.4 µM
Cc1c(OCC(F)(F)F)ccnc1CS(=O)c1nc2ccccc2[nH]1 (stereo not given)	inconclusive: 18.5 µM [inhibitor, single point]
Cc1cccc(/C=C/c2ccccc2)n1	inconclusive: 11.7 µM [inhibitor, partial curve]
O=C1c2c(O)ccc(O)c2C(=O)c2c(NCCNCCO)ccc(NCCNCCO)c21	inconclusive: 16.5 µM [inhibitor, single point]
Cn1ccc2cc3c(cc21)CCN3C(=O)Nc1cccnc1	inconclusive: 23.3 µM [inhibitor, single point]

Retrieved by structure from above:
SMILES	Potency
O=C1c2ccccc2C(=O)c2c(NCCc3ccc(O)cc3)ccc(NCCc3ccc(O)cc3)c21	active: 13.1 µM
Nc1nc(Cl)nc2c1ncn2[C@@H]1O[C@H](COP(=O)(O)OP(=O)(O)OP(=O)(O)O)[C@@H](O)[C@H]1O	inactive
O=C(/C=C/c1ccc(O)cc1)c1ccc(O)cc1O	inconclusive: 26.1 µM [inhibitor, single point]

The listing continues.

SMILES	Potency
Nc1c(S(=O)(=O)O)cc(Nc2ccc(Nc3nc(Cl)nc(Nc4ccc(S(=O)(=O)O)cc4)n3)c(S(=O)(=O)O)c2)c2c1C(=O)c1ccccc1C2=O	inconclusive: 18.5 µM [inhibitor, single point]
CC(=O)/C=C1\C(=O)N(C)c2ccccc21	active: 14.7 µM
COc1cc2nc(N3CCCN(C)CC3)nc(NC3CCN(Cc4ccccc4)CC3)c2cc1OC	inconclusive: 18.5 µM [inhibitor, single point]
O=C(Nc1nc2ccccc2n1CCN1CCOCC1)c1cccc([N+](=O)[O-])c1	inconclusive: 16.5 µM [inhibitor, single point]
S=C(Nc1ccccc1)Nc1nccs1	inconclusive: 23.3 µM [inhibitor, single point]
CCN(CC)C(=S)SSC(=S)N(CC)CC	active: 5.21 µM
O=[N+]([O-])c1ccc2c(c1)S(=O)(=O)C=C2	active: 5.85 µM
O=Nc1c(-c2c(O)[nH]c3cc(Br)ccc23)[nH]c2ccccc12	inconclusive: 11.7 µM [inhibitor, partial curve]
CC(C)(C)c1ccc(S(=O)(=O)/C=C/C#N)cc1	active: 7.36 µM
Nc1ccc(-c2ccc3ccccc3n2)cc1	active: 16.5 µM
Oc1cc(O)cc(/C=C/c2ccc(O)c(O)c2)c1	inconclusive: 16.5 µM [inhibitor, single point]
Cc1cc(O)c2c(c1)C(=O)c1cc(O)cc(O)c1C2=O	inconclusive: 26.1 µM [inhibitor, single point]
COc1ccc(/C=C/C(=O)Nc2ccccc2C(=O)O)cc1OC	active: 3.69 µM
CC1(C)CCC2=C(O1)c1ccccc1C(=O)C2=O	inconclusive: 14.7 µM [inhibitor, single point]
C=Cc1c(C)c2cc3[nH]c(cc4nc(cc5nc(cc1[nH]2)C(C)=C5CCC(=O)O)C(CCC(=O)O)=C4C)c(C)c3C=C	inconclusive: 26.1 µM [inhibitor, single point]
Cc1cccc(C#Cc2ccccc2)n1	inconclusive: 18.5 µM [inhibitor, single point]
CN(C)c1ccc(/C=C2\C(=O)Nc3ccccc32)cc1	active: 10.4 µM
O=C1C(SCCO)=C(SCCO)C(=O)c2ccccc21	active: 2.93 µM
CC(C)Cc1ccc([C@H](C)C(=O)O)cc1	inactive
COC(=O)C1=C(C)NC(C)=C(C(=O)OC)C1c1ccccc1[N+](=O)[O-]	active: 13.1 µM

— PubChem BioAssay (NCATS)
